BindingDB's records for PubMed 2885406 (University of California, 1987)
“And” between values parts separate entries of the source, which are not always exact repeats. Equal entries are not always repeated.

Biological target: T1, Alpha-2C adrenergic receptor (Rattus norvegicus, UniProt P22086)
T1 sequence (P22086 whole entry): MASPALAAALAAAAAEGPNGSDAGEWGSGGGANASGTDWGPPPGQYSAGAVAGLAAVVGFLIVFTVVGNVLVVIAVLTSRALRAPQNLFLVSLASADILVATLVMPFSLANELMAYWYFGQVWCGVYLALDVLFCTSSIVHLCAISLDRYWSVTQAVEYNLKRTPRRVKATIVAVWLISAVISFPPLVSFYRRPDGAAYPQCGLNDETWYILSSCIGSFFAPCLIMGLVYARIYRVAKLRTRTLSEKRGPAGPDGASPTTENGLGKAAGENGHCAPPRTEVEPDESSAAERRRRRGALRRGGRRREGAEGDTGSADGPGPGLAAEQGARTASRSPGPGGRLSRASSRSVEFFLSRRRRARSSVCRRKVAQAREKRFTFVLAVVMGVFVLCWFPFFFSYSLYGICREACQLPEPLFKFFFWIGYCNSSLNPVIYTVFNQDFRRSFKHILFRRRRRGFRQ

Ki: 1300 nM and 2790 nM
Structure (SMILES): CC(C)NC[C@H](O)COc1cccc2ccccc12 [Propanolol,(+/-)]
